Laboratory results: publication PMC7140450

Protein sequences, listed by entry. Tags and fused reporters are not part of them.
UniProt P09936: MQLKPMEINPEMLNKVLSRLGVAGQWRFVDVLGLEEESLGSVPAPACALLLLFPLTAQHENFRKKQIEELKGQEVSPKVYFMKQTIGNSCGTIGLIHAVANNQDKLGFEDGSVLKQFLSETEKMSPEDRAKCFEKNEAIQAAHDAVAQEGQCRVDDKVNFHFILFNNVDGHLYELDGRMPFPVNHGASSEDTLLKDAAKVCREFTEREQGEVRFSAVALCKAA
UniProt Q14247: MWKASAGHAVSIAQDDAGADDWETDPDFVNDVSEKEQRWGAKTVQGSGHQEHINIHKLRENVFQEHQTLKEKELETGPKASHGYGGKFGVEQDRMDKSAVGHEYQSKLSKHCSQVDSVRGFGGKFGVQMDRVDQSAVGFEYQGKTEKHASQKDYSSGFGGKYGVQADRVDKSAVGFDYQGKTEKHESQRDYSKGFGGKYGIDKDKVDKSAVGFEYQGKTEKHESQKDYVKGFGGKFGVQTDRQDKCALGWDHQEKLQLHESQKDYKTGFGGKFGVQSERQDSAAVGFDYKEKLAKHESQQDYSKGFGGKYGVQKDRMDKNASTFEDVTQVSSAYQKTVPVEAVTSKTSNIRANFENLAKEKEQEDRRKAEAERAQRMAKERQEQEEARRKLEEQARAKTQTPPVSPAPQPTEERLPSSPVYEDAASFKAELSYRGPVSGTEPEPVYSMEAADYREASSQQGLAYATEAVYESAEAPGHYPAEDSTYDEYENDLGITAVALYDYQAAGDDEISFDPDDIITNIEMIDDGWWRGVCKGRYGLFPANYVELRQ

Molecular target: FLAG-tagged UCHL1 (ubiquitin C-terminal hydrolase L1) (UniProt P09936)
Test: affinity purification with mass spectrometry; lysate of SUNE1 cells stably transfected with FLAG-UCHL1; IP with anti-FLAG or IgG overnight at 4 °C, protein A/G Sepharose beads, SDS-PAGE, indicated bands analysed by mass spectrometry

- binding: binds
Substance: endogenous CTTN (cortactin) of SUNE1 cells (from UniProt Q14247 1-550)

Results are given in words; binding and its absence hold for the method and conditions named. In cells and extracts the contact can be indirect. These calls come from enrichment with a bait or labelling near it, and not all partners need be listed.
